Experimental data: PubChem BioAssay AID1117319 (Southern Research Institute, 2015)
The whole screen tested about 260,000 compounds, of which about 1,500 (0.58%) were called active. Inconclusive means that the source gave no clear call. Such entries were picked first, then a sample of the others.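 Rule for the calls: active = inhibition above a set limit at one or more doses, reproduced on every date tested; inconclusive = results disagree between test dates, or hit never tested in dose response; inactive = the rest.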

Chains of the proteins cited; added tags and fusions are not shown. Lines headed by an entry give the natural chain unless they say otherwise; changes in a name come on top.
UniProt P69720: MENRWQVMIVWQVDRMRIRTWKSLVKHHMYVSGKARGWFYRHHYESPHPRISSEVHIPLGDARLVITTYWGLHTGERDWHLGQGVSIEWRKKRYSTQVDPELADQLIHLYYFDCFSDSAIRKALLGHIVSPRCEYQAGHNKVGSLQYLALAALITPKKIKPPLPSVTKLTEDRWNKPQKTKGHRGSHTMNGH
UniProt P69721: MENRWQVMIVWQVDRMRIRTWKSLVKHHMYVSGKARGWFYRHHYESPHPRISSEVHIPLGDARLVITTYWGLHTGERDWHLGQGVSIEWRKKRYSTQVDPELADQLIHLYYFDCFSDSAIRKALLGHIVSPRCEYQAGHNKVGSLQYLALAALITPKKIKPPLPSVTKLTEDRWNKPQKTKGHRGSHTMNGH
UniProt P69722: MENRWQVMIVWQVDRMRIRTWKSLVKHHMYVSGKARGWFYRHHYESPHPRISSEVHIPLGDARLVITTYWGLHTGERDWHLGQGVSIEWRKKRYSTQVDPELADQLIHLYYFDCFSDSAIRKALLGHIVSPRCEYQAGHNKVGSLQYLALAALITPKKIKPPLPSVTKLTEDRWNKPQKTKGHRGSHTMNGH
UniProt P69723: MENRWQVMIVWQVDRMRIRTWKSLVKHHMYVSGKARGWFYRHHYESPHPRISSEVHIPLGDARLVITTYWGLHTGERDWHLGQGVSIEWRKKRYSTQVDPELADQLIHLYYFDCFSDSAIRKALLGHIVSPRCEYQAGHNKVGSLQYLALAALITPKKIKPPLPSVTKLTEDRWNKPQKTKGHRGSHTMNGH
UniProt Q9HC16: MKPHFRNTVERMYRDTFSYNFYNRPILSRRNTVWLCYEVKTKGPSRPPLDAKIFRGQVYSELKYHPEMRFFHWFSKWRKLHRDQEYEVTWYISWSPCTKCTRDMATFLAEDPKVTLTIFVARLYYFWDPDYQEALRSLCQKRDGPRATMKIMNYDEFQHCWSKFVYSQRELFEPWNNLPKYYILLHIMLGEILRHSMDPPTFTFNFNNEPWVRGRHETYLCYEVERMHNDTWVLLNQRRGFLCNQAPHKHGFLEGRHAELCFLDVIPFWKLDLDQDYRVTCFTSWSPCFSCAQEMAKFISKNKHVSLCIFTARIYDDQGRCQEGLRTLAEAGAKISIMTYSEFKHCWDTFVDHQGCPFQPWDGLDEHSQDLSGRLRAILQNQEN

What follows are compounds tested against Virion infectivity factor (Human immunodeficiency virus type 1 group M subtype B (isolate BH10)) + Virion infectivity factor (Human immunodeficiency virus type 1 group M subtype B (isolate BRU/LAI)) + Virion infectivity factor (Human immunodeficiency virus type 1 group M subtype B (isolate PCV12)) + Virion infectivity factor (Human immunodeficiency virus type 1 group M subtype B (isolate HXB2)) + DNA dC->dU-editing enzyme APOBEC-3G (Homo sapiens) (UniProt P69720+P69721+P69722+P69723+Q9HC16) (assay: inhibitors of Vif binding to APOBEC3G peptide, primary screen, biochemical, TR-FRET, GST-Vif 1-94, biotin-A3G peptide, dose response retest (AID 1117319;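 note: Vif residues 1-94 fused to GST binding biotinylated APOBEC3G peptide 110-148; 0% = full assay without inhibitor and 100% = GST in place of GST-Vif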)). Details: hits give high values.
In the case of `COc1ccc(CC(NC(C)=O)C(=O)NC2CCN(C(=O)Nc3ccc(Cl)cc3)CC2)cc1OC` (stereo unspecified), the inhibition is reported as inconclusive: 39.5%. `CCN1CCN(S(=O)(=O)CC2(C)C3CCC2(C)C(=O)C3Br)CC1` (stereo unspecified) was tested, and the inhibition was inconclusive: 55.3%. `Cc1c(C(=O)Nc2ccncc2)sc2nc(-c3ccc(F)cc3)cn12` was tested, and the inhibition was inconclusive: 59.4%. With `CCCCCn1c(C(C)NC(=O)CCC)nc2ccccc21` (stereo unspecified) the inhibition was inconclusive: 46.9%. With `CC(C#N)Sc1nc2ccccc2c(=O)n1-c1ccccc1` (stereo unspecified) the inhibition was inconclusive: 39.1%. With `Cc1ccc(CN2CCSc3ccc(C(=O)NCc4ccco4)cc32)cc1` the inhibition was inactive: -7.52%. With `CCCNC(=O)C(NS(=O)(=O)c1cccc2nsnc12)c1ccccc1` (stereo unspecified) the inhibition was inconclusive: 34.6%. `Cc1cc(-c2csc(N)n2)c(C)n1Cc1ccco1` was tested, and the inhibition was inactive: 20.6%. `O=C1c2ccccc2C(=O)N1c1n[nH]c(CCc2ccccc2)n1` was tested, and the inhibition was inconclusive: 23.2%. For `COc1cc(C(=O)CSc2nnc(-c3ccc(O)cc3)n2CC2CCCO2)ccc1NC(C)=O` (stereo unspecified), the inhibition was inconclusive: 43.5%. For `COc1ccc2c(c1)CC/C(=C\C=C\c1ccccc1OC)C2=O`, the inhibition was inconclusive: 45.9%. For `CC(C)CC(COCc1cccc(Cl)c1)N1CCN(C(=O)c2ccc(C(F)(F)F)cc2)CCC1=O` (stereo unspecified), the inhibition was inconclusive: 33%. With `Cc1cccc(NC(=O)CCS(=O)(=O)c2ccc(Br)cc2)c1` the inhibition was inactive: 3.92%. In the case of `COc1cccc(CC(NC(C)=O)C(=O)NC2CCN(S(=O)(=O)c3cccc4ccccc34)CC2)c1` (stereo unspecified), the inhibition is reported as inconclusive: 53.1%. For `Cc1ccc(S(=O)(=O)Nc2cccc(C(=O)N3CCC(C(N)=O)CC3)c2)cc1`, the inhibition was inactive: -11.3%. `NCC[C@H](O)C(=O)N[C@@H]1C[C@H](N)[C@@H](O[C@H]2O[C@H](CN)[C@@H](O)[C@H](O)[C@H]2O)[C@H](O)[C@H]1O[C@H]1O[C@H](CO)[C@@H](O)[C@H](N)[C@H]1O` was tested, and the inhibition was inconclusive: 42.8%. With `COc1ccc(N2C(=O)CC(Sc3n[nH]c(-c4ccccc4)n3)C2=O)cc1` (stereo unspecified) the inhibition was inconclusive: 41.3%. `CCc1c(C)[nH]c2ccccc2c1=O` was tested, and the inhibition was inactive: 22.4%. With `N#CCC(=O)N/N=C/c1cccc(Oc2ccccc2)c1` the inhibition was inconclusive: 33.5%. In the case of `C[C@@H]1OC(Nc2ccc(N=Nc3ccccc3)cc2)[C@H](O)[C@H](O)[C@H]1O` (stereo partly specified), the inhibition is reported as inconclusive: 59.5%. In the case of `CC1CCCN(C(=O)C2c3ccccc3C(=O)N3CCc4ccccc4C23)C1` (stereo unspecified), the inhibition is reported as inconclusive: 54.2%. `CCCC(=NCc1ccccc1)C1=C(O)C(C(=O)OC)C(C)(C)CC1=O` (stereo unspecified) was tested, and the inhibition was inactive: 3.41%. For `C=CCn1c(SCn2nnc3ccccc3c2=O)nnc1-c1ccc(Cl)cc1`, the inhibition was inconclusive: 40.7%. In the case of `CCOC(=O)c1ccc(NC2OC(=O)c3ccccc32)cc1` (stereo unspecified), the inhibition is reported as inconclusive: 39.1%. In the case of `O=C(NCC1CCCO1)c1cc(-c2ccc(F)cc2)no1` (stereo unspecified), the inhibition is reported as inconclusive: 35.5%. `CCOCC(=O)Nc1cc(OC)c(Cl)cc1OC` was tested, and the inhibition was inconclusive: 46.1%. For `CC1CCN(CC(=O)Nc2ccccc2C(=O)c2ccccc2)CC1`, the inhibition was inconclusive: 33.3%. With `CC(C)CN1CCN(Cc2cccn2-c2ccccn2)CC1CCO` (stereo unspecified) the inhibition was inconclusive: 53.9%. With `CCN1CCN(Cc2nc3c(c(=O)n(C)c(=O)n3C)n2C(C)C(C)=O)CC1` (stereo unspecified) the inhibition was inconclusive: 46.1%. `COc1ccc(OC)c(C2Nc3c(Cl)ccc(C(=O)O)c3C3C=CCC32)c1` (stereo unspecified) was tested, and the inhibition was inactive: -11.5%. `COc1ccc(C(CC(=O)c2ccc(C)cc2)C(C#N)C#N)cc1OC` (stereo unspecified) was tested, and the inhibition was inactive: -6.99%. For `COc1ccc(OC)c(-c2nc(C(N)=O)c3[nH]c(=O)n(-c4ccc(F)cc4)c3n2)c1`, the inhibition was inactive: -0.73%. With `COc1cc(C(c2c(C)[nH][nH]c2=O)c2c(C)[nH][nH]c2=O)ccc1OCc1ccc([N+](=O)[O-])cc1` the inhibition was inconclusive: 52.1%. With `C#CCOc1c(Br)cc(/C=N/O)cc1OCC` the inhibition was inconclusive: 31.5%. For `O=S(=O)(Nc1nc2ccccc2nc1Cl)c1ccc2ccccc2c1`, the inhibition was inconclusive: 48.1%. In the case of `Cc1cccc(Nc2ncc3c(n2)CC(c2ccco2)CC3=O)c1` (stereo unspecified), the inhibition is reported as inactive: 3.03%. `CCC(C(=O)OCC(=O)Nc1ccc(C(N)=O)cc1)c1ccccc1` (stereo unspecified) was tested, and the inhibition was inactive: -11.4%. For `CC(C)Nc1nc(-c2ccccc2)nnc1-c1ccccc1`, the inhibition was inactive: -7.57%. `CC(=O)c1cc2c(cc1NC(=O)C1CC=CCC1C(=O)O)OCO2` (stereo unspecified) was tested, and the inhibition was inconclusive: 55.5%. `Cc1ccc(-n2nc3c(c2NC(=O)C(C)(C)C)CS(=O)(=O)C3)cc1` was tested, and the inhibition was inconclusive: 43.9%. `CCCCN(C)C(=S)Nc1ccc(Oc2ccccc2)cc1` was tested, and the inhibition was inconclusive: 43.6%. For `O=C(/C=C/c1ccc(Cl)cc1Cl)c1ccc[nH]1`, the inhibition was inconclusive: 53.3%. With `NC(=O)NCC12CC3CC(CC(C3)C1)C2` the inhibition was inconclusive: 55%. For `Cc1nn(C)c(Cl)c1C(=O)NCC(=O)O`, the inhibition was inactive: -8.59%. For `Cc1ccc(NC2Sc3ccccc3NC2=O)cc1Cl` (stereo unspecified), the inhibition was inconclusive: 36%. `O=C(NCc1ccco1)c1ccc(COCC(F)(F)F)cc1` was tested, and the inhibition was inconclusive: 37.2%. For `CCCNC(=O)NC(=O)c1cnccc1C(F)(F)F`, the inhibition was inconclusive: 39.5%. `Cc1ccc(NS(=O)(=O)c2ccc3c(c2)NC(=O)CC(=O)N3)cc1C` was tested, and the inhibition was inconclusive: 48.6%. For `Cc1sc(NC(=O)c2cc(-c3ccccc3)nc3ccccc23)c(C(N)=O)c1C`, the inhibition was inconclusive: 46.3%. For `Cc1ccc(CC(=O)Nc2ccc([N+](=O)[O-])cc2C)cc1`, the inhibition was inconclusive: 54.8%. `COC(=O)c1ccc(/C=N/OCC(=O)NCCc2ccc(OC)c(OC)c2)cc1` was tested, and the inhibition was inconclusive: 34.3%. `Cn1cc(C(=O)N2CCc3ccccc3C2)c(=O)c2cc(S(=O)(=O)N3CCOCC3)ccc21` was tested, and the inhibition was inconclusive: 60.9%. In the case of `O=c1cccccc1NCc1ccccc1`, the inhibition is reported as inconclusive: 56.1%. In the case of `CC(C)(C)c1nc(C(C)(C)C)c(Br)c(=O)[nH]1`, the inhibition is reported as inconclusive: 39%. `CC12CC3CC(C)(C1)CC(C(=O)NC(=S)N1CCCCC1)(C3)C2` was tested, and the inhibition was inconclusive: 50.1%. With `CC(=C\C(=O)O)/C(=C/c1ccco1)C(=O)O` the inhibition was inactive: 29.9%.
